Reference: paper PMC11967818
Results are given in words; binding and its absence hold for the method and conditions named. Binding seen in cells or lysates may run through a third protein. Here binding means that the protein was enriched with, or labelled near, the bait; the list need not be complete.

Protein sequences, listed by entry. Tags and fused reporters are not part of them.
UniProt Q9Z204: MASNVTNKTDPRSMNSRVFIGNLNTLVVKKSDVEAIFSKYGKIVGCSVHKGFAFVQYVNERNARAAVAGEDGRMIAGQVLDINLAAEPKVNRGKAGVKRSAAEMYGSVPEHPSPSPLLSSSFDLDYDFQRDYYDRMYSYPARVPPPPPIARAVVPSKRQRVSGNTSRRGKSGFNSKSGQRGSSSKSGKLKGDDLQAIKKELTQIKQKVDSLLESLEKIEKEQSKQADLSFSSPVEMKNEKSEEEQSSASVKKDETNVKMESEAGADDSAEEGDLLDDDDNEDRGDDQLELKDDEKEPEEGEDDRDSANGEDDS

Target: hnRNPC (mouse (endogenous in P8 testes)) (UniProt Q9Z204)
Test: affinity purification with mass spectrometry; P8 mouse testis lysate; immunoprecipitation with anti-hnRNPC antibody or IgG on Protein G magnetic beads; SDS-PAGE, in-gel trypsin digestion, LC-MS/MS (Q Exactive), MaxQuant against Mus musculus

binding | Binder
binds | SRSF7 (protein, UniProt Q8BL97 1-267) MRSSARGRPLQAATAFFLSLFFFLRRFERGFWLWGGDSETKVYVGNLGTGAGKGELERAFSYYGPLRTVWIARNPPGFAFVEFEDPRDAEDAVRGLDGKVICGSRVRVELSTGMPRRSRFDRPPARRPFDPNDRCYECGEKGHYAYDCHRYSRRRRSRSRSRSHSRSRGRRYSRSRSRSRGRRSRSASPRRSRSVSLRRSRSASLRRSRSGSIIGSRYFQSRSRSRSRSRSISRPRSSRSKSRSPSPKRSRSPSGSPHRSASPERMD
binds | SRSF3 (protein, UniProt P84104 1-164) MHRDSCPLDCKVYVGNLGNNGNKTELERAFGYYGPLRSVWVARNPPGFAFVEFEDPRDAADAVRELDGRTLCGCRVRVELSNGEKRSRNRGPPPSWGRRPRDDYRRRSPPPRRRSPRRRSFSRSRSRSLSRDRRRERSLSRERNHKPSRSFSRSRSRSRSNERK
binds | SF3B3 (protein, UniProt Q921M3 1-1217) MFLYNLTLQRATGISFAIHGNFSGTKQQEIVVSRGKILELLRPDPNTGKVHTLLTVEVFGVIRSLMAFRLTGGTKDYIVVGSDSGRIVILEYQPSKNMFEKIHQETFGKSGCRRIVPGQFLAVDPKGRAVMISAIEKQKLVYILNRDAAARLTISSPLEAHKANTLVYHVVGVDVGFENPMFACLEMDYEEADNDPTGEAAANTQQTLTFYELDLGLNHVVRKYSEPLEEHGNFLITVPGGSDGPSGVLICSENYITYKNFGDQPDIRCPIPRRRNDLDDPERGMIFVCSATHKTKSMFFFLAQTEQGDIFKITLETDEDMVTEIRLKYFDTVPVAAAMCVLKTGFLFVASEFGNHYLYQIAHLGDDDEEPEFSSAMPLEEGDTFFFQPRPLKNLVLVDELDSLSPILFCQIADLANEDTPQLYVACGRGPRSSLRVLRHGLEVSEMAVSELPGNPNAVWTVRRHIEDEFDAYIIVSFVNATLVLSIGETVEEVTDSGFLGTTPTLSCSLLGDDALVQVYPDGIRHIRADKRVNEWKTPGKKTIVKCAVNQRQVVIALTGGELVYFEMDPSGQLNEYTERKEMSADVVCMSLANVPPGEQRSRFLAVGLVDNTVRIISLDPSDCLQPLSMQALPAQPESLCIVEMGGTEKQDELGERGSIGFLYLNIGLQNGVLLRTVLDPVTGDLSDTRTRYLGSRPVKLFRVRMQGQEAVLAMSSRSWLSYSYQSRFHLTPLSYETLEFASGFASEQCPEGIVAISTNTLRILALEKLGAVFNQVAFPLQYTPRKFVIHPESNNLIIIETDHNAYTEATKAQRKQQMAEEMVEAAGEDERELAAEMAAAFLNENLPESIFGAPKAGNGQWASVIRVMNPIQGNTLDLVQLEQNEAAFSVAVCRFSNTGEDWYVLVGVAKDLILSPRSVAGGFVYTYKLVNNGEKLEFLHKTPVEEVPAAIAPFQGRVLIGVGKLLRVYDLGKKKLLRKCENKHIANYISGIQTIGHRVIVSDVQESFIWVRYKRNENQLIIFADDTYPRWVTTASLLDYDTVAGADKFGNICVVRLPPNTNDEVDEDPTGNKALWDRGLLNGASQKAEVIMNYHVGETVLSLQKTTLIPGGSESLVYTTLSGGIGILVPFTSHEDHDFFQHVEMHLRSEHPPLCGRDHLSFRSYYFPVKNVIDGDLCEQFNSMEPNKQKNVSEELDRTPPEVSKKLEDIRTRYAF

Further lines, the binder ahead of its results:

Binder | binding
SF3A1 (protein, UniProt Q8K4Z5 1-791) MQAGPVQAVPPPPPVATESKQPIEEEASSKEDPTPSKPVVGIIYPPPEVRNIVDKTASFVARNGPEFEARIRQNEINNPKFNFLNPNDPYHAYYRHKVSEFKEGKAQEPSAAIPKVMQQQQQATQQQLPQKVQAQVIQETIVPKEPPPEFEFIADPPSISAFDLDVVKLTAQFVARNGRQFLTQLMQKEQRNYQFDFLRPQHSLFNYFTKLVEQYTKILIPPKGLFSKLKKEAENPREVLDQVCYRVEWAKFQERERKKEEEEKEKERVAYAQIDWHDFVVVETVDFQPNEQGNFPPPTTPEELGARILIQERYEKFGESEEVEMEVESDEEDQEKAEETPSQLDQDTQVQDMDEGSDDEEEGQKVPPPPETPMPPPLPPTPDQVIVRKDYDPKASKPLPPAPAPDEYLVSPITGEKIPASKMQEHMRIGLLDPRWLEQRDRSIREKQSDDEVYAPGLDIESSLKQLAERRTDIFGVEETAIGKKIGEEEIQKPEEKVTWDGHSGSMARTQQAAQANITLQEQIEAIHKAKGLVPEDDTKEKIGPSKPNEIPQQPPPPSSATNIPSSAPPITSVPRPPAMPPPVRTTVVSAVPVMPRPPMASVVRLPPGSVIAPMPPIIHAPRINVVPMPPAAPPIMAPRPPPMIVPTAFVPAPPVAPVPAPAPMPPVHPPPPMEDEPPSKKLKTEDSLMPEEEFLRRNKGPVSIKVQVPNMQDKTEWKLNGQGLVFTLPLTDQVSVIKVKIHEATGMPAGKQKLQYEGIFIKDSNSLAYYNMASGAVIHLALKERGGRKK | binds
BUD31 (protein, UniProt Q6PGH1 1-144) MPKVKRSRKAPPDGWELIEPTLDELDQKMREAETEPHEGKRKVESLWPIFRIHHQKTRYIFDLFYKRKAISRELYEYCIKEGYADKNLIAKWKKQGYENLCCLRCIQTRDTNFGTNCICRVPKSKLEVGRIIECTHCGCRGCSG | binds
